± gives the standard deviation of the averaged measurements. Differences between knockout arms are mostly noise.
Test system: MDA-MB-231
Assay: relative cell number vs DMSO control (72 h) (% of DMSO); higher = less growth inhibition (more cells)
Experimental: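 QMAP-Seq: a pool of 5 breast cancer cell lines (ZR-75-1, SKBR3, HCC-38, MDA-MB-231, BT-20), each carrying 12 doxycycline-inducible Cas9 sgRNA perturbations (11 knockouts plus non-targeting sgNT), was treated with compounds for 72 h at four 10-fold doses (10 nM-10 uM or 1 nM-1 uM range). Barcodes were amplified and sequenced, and cell number was interpolated from 293T spike-in standard curves. The result is expressed as % of the median of DMSO wells. Two biological replicates.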

Cc1[nH]c(/C=C2\C(=O)Nc3ccc(S(=O)(=O)N(C)c4cccc(Cl)c4)cc32)c(C)c1C(=O)N1CCN(C)CC1
Settings	relative cell number
sgRNA knockout: sgATF3, 10 nM	109 ± 21
sgRNA knockout: sgATF3, 100 nM	82.7 ± 28
sgRNA knockout: sgATF3, 1000 nM	64.1 ± 8.6
sgRNA knockout: sgATF3, 10000 nM	56.9 ± 15
sgRNA knockout: sgATF4, 10 nM	95.4 ± 26
sgRNA knockout: sgATF4, 100 nM	91.7 ± 30
sgRNA knockout: sgATF4, 1000 nM	59 ± 25
sgRNA knockout: sgATF4, 10000 nM	71.5 ± 25
sgRNA knockout: sgATF6, 10 nM	84.5 ± 3.5
sgRNA knockout: sgATF6, 100 nM	90.8 ± 33
sgRNA knockout: sgATF6, 1000 nM	83.7 ± 6.8
sgRNA knockout: sgATF6, 10000 nM	49.8 ± 2.1
sgRNA knockout: sgATG7, 10 nM	92.7 ± 3.9
sgRNA knockout: sgATG7, 100 nM	86.9 ± 7.3
sgRNA knockout: sgATG7, 1000 nM	96.4 ± 7
sgRNA knockout: sgATG7, 10000 nM	48.7 ± 13
sgRNA knockout: sgERN1, 10 nM	105 ± 3.5
sgRNA knockout: sgERN1, 100 nM	108 ± 6.5
sgRNA knockout: sgERN1, 1000 nM	85.1 ± 9.4
sgRNA knockout: sgERN1, 10000 nM	39.4 ± 3.9
sgRNA knockout: sgHSF1, 10 nM	94.3 ± 33
sgRNA knockout: sgHSF1, 100 nM	105 ± 14
sgRNA knockout: sgHSF1, 1000 nM	87.5 ± 9.3
sgRNA knockout: sgHSF1, 10000 nM	50.8 ± 20
sgRNA knockout: sgHSF2, 10 nM	124 ± 11
sgRNA knockout: sgHSF2, 100 nM	99.4 ± 34
sgRNA knockout: sgHSF2, 1000 nM	91.4 ± 22
sgRNA knockout: sgHSF2, 10000 nM	37.1 ± 11
sgRNA knockout: sgKEAP1, 10 nM	101 ± 13
sgRNA knockout: sgKEAP1, 100 nM	109 ± 27
sgRNA knockout: sgKEAP1, 1000 nM	98 ± 32
sgRNA knockout: sgKEAP1, 10000 nM	56.8 ± 1
sgRNA knockout: sgNFE2L2, 10 nM	103 ± 5.5
sgRNA knockout: sgNFE2L2, 100 nM	102 ± 2.6
sgRNA knockout: sgNFE2L2, 1000 nM	113 ± 25
sgRNA knockout: sgNFE2L2, 10000 nM	49.4 ± 10
sgRNA knockout: sgSLC35F2, 10 nM	93.5 ± 4.6
sgRNA knockout: sgSLC35F2, 100 nM	83.3 ± 3.6
sgRNA knockout: sgSLC35F2, 1000 nM	96.2 ± 7.7
sgRNA knockout: sgSLC35F2, 10000 nM	45 ± 12
sgRNA knockout: sgXBP1, 10 nM	119 ± 1.7
sgRNA knockout: sgXBP1, 100 nM	108.1 ± 0.17
sgRNA knockout: sgXBP1, 1000 nM	76.4 ± 13
sgRNA knockout: sgXBP1, 10000 nM	45.6 ± 5.2

O=C(O)CCCc1ccc(N(CCCl)CCCl)cc1 [Chlorambucil]
Settings	relative cell number
sgRNA knockout: sgATF3, 10 nM	106 ± 20
sgRNA knockout: sgATF3, 100 nM	90.5 ± 16
sgRNA knockout: sgATF3, 1000 nM	102 ± 13
sgRNA knockout: sgATF3, 10000 nM	63.3 ± 14
sgRNA knockout: sgATF4, 10 nM	81.6 ± 18
sgRNA knockout: sgATF4, 100 nM	89.1 ± 17
sgRNA knockout: sgATF4, 1000 nM	58.7 ± 16
sgRNA knockout: sgATF4, 10000 nM	63.5 ± 8.9
sgRNA knockout: sgATF6, 10 nM	75.8 ± 1.6
sgRNA knockout: sgATF6, 100 nM	108 ± 30
sgRNA knockout: sgATF6, 1000 nM	91.8 ± 20
sgRNA knockout: sgATF6, 10000 nM	79.8 ± 7.9
sgRNA knockout: sgATG7, 10 nM	94.5 ± 20
sgRNA knockout: sgATG7, 100 nM	94.5 ± 36
sgRNA knockout: sgATG7, 1000 nM	93.1 ± 16
sgRNA knockout: sgATG7, 10000 nM	46.8 ± 12
sgRNA knockout: sgERN1, 10 nM	102 ± 35
sgRNA knockout: sgERN1, 100 nM	83.9 ± 9.9
sgRNA knockout: sgERN1, 1000 nM	103 ± 23
sgRNA knockout: sgERN1, 10000 nM	53.7 ± 8.7
sgRNA knockout: sgHSF1, 10 nM	90.4 ± 3.9
sgRNA knockout: sgHSF1, 100 nM	95.3 ± 8.2
sgRNA knockout: sgHSF1, 1000 nM	93.6 ± 11
sgRNA knockout: sgHSF1, 10000 nM	59.6 ± 13
sgRNA knockout: sgHSF2, 10 nM	103 ± 1.8
sgRNA knockout: sgHSF2, 100 nM	83.4 ± 13
sgRNA knockout: sgHSF2, 1000 nM	85.1 ± 1.4
sgRNA knockout: sgHSF2, 10000 nM	79.8 ± 4.7
sgRNA knockout: sgKEAP1, 10 nM	97.5 ± 32
sgRNA knockout: sgKEAP1, 100 nM	83.6 ± 12
sgRNA knockout: sgKEAP1, 1000 nM	117 ± 18
sgRNA knockout: sgKEAP1, 10000 nM	73.6 ± 3
sgRNA knockout: sgNFE2L2, 10 nM	96.1 ± 22
sgRNA knockout: sgNFE2L2, 100 nM	60.7 ± 3.2
sgRNA knockout: sgNFE2L2, 1000 nM	96.1 ± 15
sgRNA knockout: sgNFE2L2, 10000 nM	42.7 ± 4.2
sgRNA knockout: sgSLC35F2, 10 nM	118 ± 53
sgRNA knockout: sgSLC35F2, 100 nM	90.7 ± 7.5
sgRNA knockout: sgSLC35F2, 1000 nM	85.2 ± 28
sgRNA knockout: sgSLC35F2, 10000 nM	68.5 ± 1.9
sgRNA knockout: sgXBP1, 10 nM	109 ± 3.1
sgRNA knockout: sgXBP1, 100 nM	105 ± 6.6
sgRNA knockout: sgXBP1, 1000 nM	84.1 ± 8.3
sgRNA knockout: sgXBP1, 10000 nM	56.6 ± 6.2

CC(=O)Nc1nc(C)c(-c2ccc(Cl)c(S(=O)(=O)NCCO)c2)s1 [PIK93]
Settings	relative cell number
sgRNA knockout: sgATF3, 10 nM	104 ± 3
sgRNA knockout: sgATF3, 100 nM	91.1 ± 17
sgRNA knockout: sgATF3, 1000 nM	104 ± 24
sgRNA knockout: sgATF3, 10000 nM	55.6 ± 3.5
sgRNA knockout: sgATF4, 10 nM	101 ± 15
sgRNA knockout: sgATF4, 100 nM	101 ± 7.8
sgRNA knockout: sgATF4, 1000 nM	75.5 ± 8.1
sgRNA knockout: sgATF4, 10000 nM	46.9 ± 0.91
sgRNA knockout: sgATF6, 10 nM	86.9 ± 16
sgRNA knockout: sgATF6, 100 nM	85.3 ± 16
sgRNA knockout: sgATF6, 1000 nM	95.2 ± 4.7
sgRNA knockout: sgATF6, 10000 nM	63 ± 8.7
sgRNA knockout: sgATG7, 10 nM	116 ± 2.5
sgRNA knockout: sgATG7, 100 nM	104 ± 17
sgRNA knockout: sgATG7, 1000 nM	78.8 ± 7.7
sgRNA knockout: sgATG7, 10000 nM	56.1 ± 7.1
sgRNA knockout: sgERN1, 10 nM	117 ± 32
sgRNA knockout: sgERN1, 100 nM	107 ± 14
sgRNA knockout: sgERN1, 1000 nM	92 ± 14
sgRNA knockout: sgERN1, 10000 nM	49 ± 5
sgRNA knockout: sgHSF1, 10 nM	91.6 ± 20
sgRNA knockout: sgHSF1, 100 nM	95.1 ± 3.5
sgRNA knockout: sgHSF1, 1000 nM	82.4 ± 10
sgRNA knockout: sgHSF1, 10000 nM	53.7 ± 11
sgRNA knockout: sgHSF2, 10 nM	102 ± 5.6
sgRNA knockout: sgHSF2, 100 nM	82.7 ± 56
sgRNA knockout: sgHSF2, 1000 nM	78.9 ± 11
sgRNA knockout: sgHSF2, 10000 nM	60.8 ± 14
sgRNA knockout: sgKEAP1, 10 nM	99.2 ± 12
sgRNA knockout: sgKEAP1, 100 nM	126 ± 29
sgRNA knockout: sgKEAP1, 1000 nM	88.4 ± 3
sgRNA knockout: sgKEAP1, 10000 nM	75 ± 9.1
sgRNA knockout: sgNFE2L2, 10 nM	111 ± 34
sgRNA knockout: sgNFE2L2, 100 nM	109 ± 34
sgRNA knockout: sgNFE2L2, 1000 nM	106 ± 5
sgRNA knockout: sgNFE2L2, 10000 nM	64.3 ± 2.6
sgRNA knockout: sgSLC35F2, 10 nM	103 ± 58
sgRNA knockout: sgSLC35F2, 100 nM	70.4 ± 16
sgRNA knockout: sgSLC35F2, 1000 nM	83.6 ± 17
sgRNA knockout: sgSLC35F2, 10000 nM	51.1 ± 4.5
sgRNA knockout: sgXBP1, 10 nM	97.3 ± 10
sgRNA knockout: sgXBP1, 100 nM	90.3 ± 7.6
sgRNA knockout: sgXBP1, 1000 nM	81.3 ± 19
sgRNA knockout: sgXBP1, 10000 nM	61 ± 3.5
